Measurements reported in PubChem BioAssay AID1259425 (University of Nebraska Medical Center, 2018).

Purpose: 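Compare each knockdown with KSR1 silencing using changes in marker transcripts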 (primary screen)
Cell system: HCT116 human colon cancer cells
Reagent: siRNA pool against human genes, 50 nM siRNA
Read-out: 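mRNA of six signature genes measured together by branched-DNA assay after 50 nM siRNA pool, blank removed, divided by geometric mean of two housekeeping genes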
Direction: BNIP3L mRNA: higher = more BNIP3L transcript after knockdown; NDRG1 mRNA: higher = more NDRG1 transcript after knockdown
The deposit covers about 14,000 reagents; below is a random part of them. Not all columns of the deposit are shown. Not given: the time to read-out.

With ARPC3 (actin related protein 2/3 complex subunit 3), what was measured?
BNIP3L mRNA, set 1: 0.0803; NDRG1 mRNA, set 1: 0.171

What is on record for MPL (MPL proto-oncogene, thrombopoietin receptor)?
BNIP3L mRNA, set 1: 0.106; NDRG1 mRNA, set 1: 0.109

With MTCP1 (mature T cell proliferation 1), how do the results read?
BNIP3L mRNA, set 1: 0.203; NDRG1 mRNA, set 1: 0.239

What did the screen give for CYP17A1 (cytochrome P450 family 17 subfamily A member 1)?
BNIP3L mRNA, set 1: 0.0461; NDRG1 mRNA, set 1: 0.0967

With FBXO3 (F-box protein 3), what was measured?
BNIP3L mRNA, set 1: 0.033; NDRG1 mRNA, set 1: 0.33

With ACVR1C (activin A receptor type 1C), how do the results read?
BNIP3L mRNA, set 1: 0.09; NDRG1 mRNA, set 1: 0.159

What did the screen give for PLCL2 (phospholipase C like 2)?
BNIP3L mRNA, set 1: 0.189; NDRG1 mRNA, set 1: 0.312

Which result is listed for MESD (mesoderm development LRP chaperone)?
BNIP3L mRNA, set 1: 0.0829; NDRG1 mRNA, set 1: 1.57

What is on record for NF1 (neurofibromin 1)?
BNIP3L mRNA, set 1: 0.045; NDRG1 mRNA, set 1: 0.124

What is on record for TNFRSF13B (TNF receptor superfamily member 13B)?
BNIP3L mRNA, set 1: 0.0354; NDRG1 mRNA, set 1: 0.0877

For OTUD7B (OTU deubiquitinase 7B), what does the deposit list?
BNIP3L mRNA, set 1: 0.148; NDRG1 mRNA, set 1: 0.284

Which result is listed for CMBL (carboxymethylenebutenolidase homolog)?
BNIP3L mRNA, set 1: 0.12; NDRG1 mRNA, set 1: 0.182

What is on record for DOCK3 (dedicator of cytokinesis 3)?
BNIP3L mRNA, set 1: 0.0684; NDRG1 mRNA, set 1: 0.202

Which result is listed for CATSPER1 (cation channel sperm associated 1)?
BNIP3L mRNA, set 1: 0.127; NDRG1 mRNA, set 1: 0.112

For TINAGL1 (tubulointerstitial nephritis antigen like 1), what was measured?
BNIP3L mRNA, set 1: 0.179; NDRG1 mRNA, set 1: 0.221

With EPPIN (epididymal peptidase inhibitor), what was measured?
BNIP3L mRNA, set 1: 0.149; NDRG1 mRNA, set 1: 0.105

With DUX3 (double homeobox 3), what does the deposit list?
BNIP3L mRNA, set 1: 0.0489; NDRG1 mRNA, set 1: 0.0464

With CDH15 (cadherin 15), how do the results read?
BNIP3L mRNA, set 1: 0.108; NDRG1 mRNA, set 1: 0.159

What did the screen give for GPR37L1 (G protein-coupled receptor 37 like 1)?
BNIP3L mRNA, set 1: 0.0866; NDRG1 mRNA, set 1: 0.291

In a second layout: entries from further up.
{"gene knocked down":"CATSPER1 (cation channel sperm associated 1)","BNIP3L mRNA, set 1":0.127,"NDRG1 mRNA, set 1":0.112}
{"gene knocked down":"TINAGL1 (tubulointerstitial nephritis antigen like 1)","BNIP3L mRNA, set 1":0.179,"NDRG1 mRNA, set 1":0.221}
